The record followed here is article PMC2699478.

By UniProt entry, the sequences of proteins in these tests, tags left out. Where a name states a change or a piece, a line headed by the entry shows the natural chain unless it says otherwise.
UniProt Q01196: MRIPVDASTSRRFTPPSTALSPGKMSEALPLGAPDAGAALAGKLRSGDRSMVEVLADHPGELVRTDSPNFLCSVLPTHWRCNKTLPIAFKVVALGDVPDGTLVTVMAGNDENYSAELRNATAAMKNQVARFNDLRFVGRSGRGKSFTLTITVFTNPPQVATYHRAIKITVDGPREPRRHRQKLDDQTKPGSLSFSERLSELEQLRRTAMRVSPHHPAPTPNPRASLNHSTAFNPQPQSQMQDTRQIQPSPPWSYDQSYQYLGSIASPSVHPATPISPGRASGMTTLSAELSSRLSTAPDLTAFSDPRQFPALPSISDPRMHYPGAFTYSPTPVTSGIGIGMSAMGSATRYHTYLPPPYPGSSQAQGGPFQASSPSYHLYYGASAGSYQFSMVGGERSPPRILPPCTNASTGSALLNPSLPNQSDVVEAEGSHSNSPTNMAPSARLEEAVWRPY
UniProt Q9BZS1: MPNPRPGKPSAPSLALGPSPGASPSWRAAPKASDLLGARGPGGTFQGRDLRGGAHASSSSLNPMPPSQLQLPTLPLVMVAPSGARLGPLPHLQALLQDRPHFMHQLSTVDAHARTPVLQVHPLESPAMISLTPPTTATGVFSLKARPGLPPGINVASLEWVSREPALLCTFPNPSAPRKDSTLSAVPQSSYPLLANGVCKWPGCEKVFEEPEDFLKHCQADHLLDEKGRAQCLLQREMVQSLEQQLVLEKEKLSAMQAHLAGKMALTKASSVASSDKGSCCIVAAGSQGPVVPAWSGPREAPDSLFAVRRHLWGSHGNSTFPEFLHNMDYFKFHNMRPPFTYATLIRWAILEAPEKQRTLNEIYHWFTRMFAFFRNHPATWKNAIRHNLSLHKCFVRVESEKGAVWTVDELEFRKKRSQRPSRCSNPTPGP

These are yes or no findings as the source states them, for the method shown. Binding seen in cells or lysates may run through a third protein. Binding can be weak; no strength is given.

In the assay the target is FLAG-tagged RUNX1 (UniProt Q01196). Description: co-IP; HEK293T cells co-transfected with a FLAG-tagged and a non-tagged protein; lysis after 3 days in 150 mM NaCl, 50 mM Tris-HCl pH 7,5, 1% Nonidet P-40, 0,5% sodium deoxycholate; α-FLAG M2 affinity gel 2 h at 4°C, 6 washes; immunoblot with α-FOXP3 eBio7979.

Consider FOXP3Δ2Δ7 (from UniProt Q9BZS1), for which the binding entry is recorded as “binds”.
